{
  "sequences": {"note": "By UniProt entry, the sequences of proteins in these tests, tags left out. Where a name states a change or a piece, a line headed by the entry shows the natural chain unless it says otherwise.", "UniProt P29459": "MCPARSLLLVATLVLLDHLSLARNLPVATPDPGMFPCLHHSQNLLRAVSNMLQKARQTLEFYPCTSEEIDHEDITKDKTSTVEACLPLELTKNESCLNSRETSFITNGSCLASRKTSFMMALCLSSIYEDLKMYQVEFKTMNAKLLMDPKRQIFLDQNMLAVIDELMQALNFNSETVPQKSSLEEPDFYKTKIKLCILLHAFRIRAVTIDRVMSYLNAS"},
  "source": "paper PMC7263589",
  "about": "“Integration of phage and yeast display platforms: A reliable and cost effective approach for binning of peptides as displayed on-phage” (PLoS ONE, 2020)",
  "key": {"[1]": {"target": "T1, IL-23-AVI (human, UniProt Q9NPF7 20-189; P29460 23-328)", "T1 construct": "IL-23 p19 subunit, human; IL-12/IL-23 p40 subunit, human; Captured on streptavidin chips and beads, so biotinylation of the Avi tag is implied; also called Avi-tagged IL-23; recombinant IL-23", "T1 sequence (looked up) 1": "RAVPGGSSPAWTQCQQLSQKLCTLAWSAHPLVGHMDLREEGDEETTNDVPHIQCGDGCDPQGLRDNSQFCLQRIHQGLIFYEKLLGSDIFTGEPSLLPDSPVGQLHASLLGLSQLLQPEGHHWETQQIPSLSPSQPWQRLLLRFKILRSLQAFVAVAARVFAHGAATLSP", "T1 sequence (looked up) 2": "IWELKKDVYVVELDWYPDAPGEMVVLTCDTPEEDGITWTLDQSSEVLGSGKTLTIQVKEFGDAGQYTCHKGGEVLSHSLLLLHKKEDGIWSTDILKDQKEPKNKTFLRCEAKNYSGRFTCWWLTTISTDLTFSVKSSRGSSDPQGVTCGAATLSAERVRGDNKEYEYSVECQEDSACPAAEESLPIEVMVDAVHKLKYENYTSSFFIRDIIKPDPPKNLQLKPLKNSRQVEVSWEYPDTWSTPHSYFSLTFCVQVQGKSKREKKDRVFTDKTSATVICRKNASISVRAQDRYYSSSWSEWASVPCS", "experiment": "ELISA; titer dependent phage ELISA; phage screened against IL-23, IL-12 and background neutravidin-coated plates; only the target purified"}, "[2]": {"target": "Avi-tagged IL-12 (UniProt P29459)", "experiment": "ELISA; titer dependent phage ELISA; phage screened against IL-23, IL-12 and background neutravidin-coated plates; only the target purified"}, "[3]": {"target": "IL-23 with p19 W137A displayed on yeast (human) (UniProt Q9NPF7+P29460)", "experiment": "flow cytometry on cells; peptide-phage added to yeast displaying IL-23 or its p19 alanine variants, 1 h RT, casein in PBS; phage detected with anti-M13-AF647 on V5- and p40-positive cells"}, "[4]": {"target": "wild-type IL-23 displayed on yeast (human) (UniProt Q9NPF7+P29460)", "experiment": "flow cytometry on cells; peptide-phage added to yeast displaying IL-23 or its p19 alanine variants, 1 h RT, casein in PBS; phage detected with anti-M13-AF647 on V5- and p40-positive cells"}, "[5]": {"target": "IL-23 with p19 W26A displayed on yeast (human) (UniProt Q9NPF7+P29460)", "experiment": "flow cytometry on cells; peptide-phage added to yeast displaying IL-23 or its p19 alanine variants, 1 h RT, casein in PBS; phage detected with anti-M13-AF647 on V5- and p40-positive cells"}, "[6]": {"target": "IL-23 with p19 L24A displayed on yeast (human) (UniProt Q9NPF7+P29460)", "experiment": "flow cytometry on cells; peptide-phage added to yeast displaying IL-23 or its p19 alanine variants, 1 h RT, casein in PBS; phage detected with anti-M13-AF647 on V5- and p40-positive cells"}, "[7]": {"target": "T2, hu IL-23 (human) (UniProt Q9NPF7+P29460)", "experiment": "HDX-MS; hu IL-23 with peptide at 1:5 molar ratio in 1xPBS pH 7.4, labelling at 15°C; Waters platform, on-line pepsin; both purified"}, "[8]": {"target": "T2, hu IL-23 (human)", "experiment": "crystal structure; co-crystal of IL-23 with peptide 23–652; methods not shown (S1 File); both purified"}},
  "note": "Results are given in words; binding and its absence hold for the method and conditions named. Some results given as binding are weak or reduced against the parent protein; the word gives no strength.",
  "data": [
    {"binder": "HVPDPCWFGLLCDVLNS (selected from a peptide phage library against IL-23; Two cysteines; also called FGL-containing peptide; source: synthetic peptide (CPC Scientific))", "note": "[peptide 23–644 (free, chemically synthesized)]", "values": [
      {"measurement": "binding", "setting": "[1]", "result": "binds"},
      {"measurement": "binding", "setting": "[2]", "result": "no binding"},
      {"measurement": "binding", "setting": "[3]", "result": "binds"},
      {"measurement": "binding", "setting": "[4]", "result": "binds"},
      {"measurement": "binding", "setting": "[5]", "result": "no binding"},
      {"measurement": "binding", "setting": "[6]", "result": "binds"}
    ]},
    {"binder": "FTKEIDSWWLSLMSS (selected from a peptide phage library against IL-23; No cysteines, 15 residues; source: synthetic peptide (CPC Scientific))", "note": "[peptide 23–437 (free, chemically synthesized)]", "values": [
      {"measurement": "binding", "setting": "[4]", "result": "binds"}
    ]},
    {"binder": "DTLTKSFCYFGTWCQMYGST", "note": "[peptide 23–652 displayed on-phage]", "values": [
      {"measurement": "binding", "setting": "[1]", "result": "binds"},
      {"measurement": "binding", "setting": "[2]", "result": "no binding"},
      {"measurement": "binding", "setting": "[3]", "result": "binds"},
      {"measurement": "binding", "setting": "[4]", "result": "binds"},
      {"measurement": "binding", "setting": "[5]", "result": "no binding"},
      {"measurement": "binding", "setting": "[6]", "result": "binds"}
    ]},
    {"binder": "LECLYYLRWKVCDN", "note": "[peptide 23–447 displayed on-phage]", "values": [
      {"measurement": "binding", "setting": "[4]", "result": "binds"}
    ]},
    {"binder": "GLRERCVRNYGHEFCQNWYW (selected from a peptide phage library against IL-23; Two cysteines; source: synthetic peptide (CPC Scientific))", "note": "[peptide 23–446 (free, chemically synthesized)]", "values": [
      {"measurement": "binding", "setting": "[4]", "result": "binds"}
    ]},
    {"binder": "QKITQCVYIIWTYPCLLNDV (selected from a peptide phage library against IL-23; Two cysteines; source: synthetic peptide (CPC Scientific))", "note": "[peptide 23–441 (free, chemically synthesized)]", "values": [
      {"measurement": "binding", "setting": "[4]", "result": "binds"}
    ]},
    {"binder": "DTLTKSFCYFGTWCQMYGST (selected from a peptide phage library against IL-23; Two cysteines; also called FGLT-containing peptide; FGL-containing peptide; source: synthetic peptide (CPC Scientific))", "note": "[peptide 23–652 (free, chemically synthesized)]", "values": [
      {"measurement": "binding", "setting": "[7]", "result": "binds"},
      {"measurement": "binding", "setting": "[8]", "result": "binds"}
    ]}
  ]
}
